# Results: paper PMC7132340
# Amino acid sequences for entries named in this document (tags omitted). Residues count along the entry.
# UniProt P16110: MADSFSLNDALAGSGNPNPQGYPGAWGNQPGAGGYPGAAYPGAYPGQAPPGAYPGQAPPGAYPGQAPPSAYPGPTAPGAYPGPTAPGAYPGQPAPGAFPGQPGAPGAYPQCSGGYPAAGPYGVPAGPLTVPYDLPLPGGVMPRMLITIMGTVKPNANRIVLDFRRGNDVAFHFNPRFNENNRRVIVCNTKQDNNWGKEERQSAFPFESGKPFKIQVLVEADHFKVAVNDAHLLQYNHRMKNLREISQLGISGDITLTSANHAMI
# UniProt P40224, residues 22-93: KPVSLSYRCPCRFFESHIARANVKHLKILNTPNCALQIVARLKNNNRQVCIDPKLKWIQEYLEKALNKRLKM
# Results are given in words; binding and its absence hold for the method and conditions named. In cells and extracts the contact can be indirect. Some results given as binding are weak or reduced against the parent protein; the word gives no strength.
# Key:
# [1] = molecular target: Gal‐3, endogenous in mouse (mouse (endogenous in peritoneal lavage cells and lymph nodes)) (UniProt P16110); assay: proximity ligation; antibody-based PLA (Duolink) on frozen sections of lymph nodes from WT and CXCL12−/− mice
# [2] = molecular target: Gal‐3, endogenous in mouse (mouse (endogenous in peritoneal lavage cells and lymph nodes)) (UniProt P16110); assay: proximity ligation; antibody-based PLA (Duolink) on cells from mouse peritoneal lavages after injection of PBS or thioglycolate
substance,measurement,setting,value
"CXCL12, endogenous in mouse (from UniProt P40224 22-93) (ligand)",binding,[1],binds
same,binding,[2],binds
